From the supplement of paper PMC8728848
This is one part of the list.

How the values were obtained:
Assay in all cases: glycan array binding signal (z-score within array); higher = stronger binding
Settings in all cases: glycan notation: IUPAC condensed, linker removed
[1] = target: Gal(b1-4)GlcNAc(b1-3)Gal(b1-4)GlcNAc(b1-3)Gal(b1-4)GlcNAc(b1-3)Gal(b1-4)GlcNAc(b1-2)Man(a1-3)[Gal(b1-4)GlcNAc(b1-3)Gal(b1-4)GlcNAc(b1-3)Gal(b1-4)GlcNAc(b1-3)Gal(b1-4)GlcNAc(b1-2)Man(a1-6)]Man(b1-4)GlcNAc(b1-4)[Fuc(a1-6)]GlcNAc
Method in brief: (§1)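 The binding signal is a Z-score computed within each array. Data were drawn from 3228 arrays in the Consortium for Functional Glycomics database, restricted to those with a known protein sequence. Scores were averaged over arrays of the same protein sequence at different concentrations or buffers, and over linkers, and negative values can be taken as non-binding.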

[2] = target: Gal(b1-4)GlcNAc(b1-3)Gal(b1-4)GlcNAc(b1-3)Gal(b1-4)GlcNAc(b1-3)Gal(b1-4)GlcNAc(b1-2)[Gal(b1-4)GlcNAc(b1-3)Gal(b1-4)GlcNAc(b1-3)Gal(b1-4)GlcNAc(b1-3)Gal(b1-4)GlcNAc(b1-6)]Man(a1-6)[Gal(b1-4)GlcNAc(b1-3)Gal(b1-4)GlcNAc(b1-3)Gal(b1-4)GlcNAc(b1-3)Gal(b1-4)GlcNAc(b1-2)Man(a1-3)]Man(b1-4)GlcNAc(b1-4)[Fuc(a1-6)]GlcNAc
Method in brief: as §1

[3] = target: Gal(b1-4)GlcNAc(b1-3)Gal(b1-4)GlcNAc(b1-3)Gal(b1-4)GlcNAc(b1-3)Gal(b1-4)GlcNAc(b1-3)Gal(b1-4)GlcNAc(b1-2)Man(a1-3)[Gal(b1-4)GlcNAc(b1-3)Gal(b1-4)GlcNAc(b1-3)Gal(b1-4)GlcNAc(b1-3)Gal(b1-4)GlcNAc(b1-3)Gal(b1-4)GlcNAc(b1-2)Man(a1-6)]Man(b1-4)GlcNAc(b1-4)GlcNAc
Method in brief: as §1

[4] = target: Gal(b1-4)GlcNAc(b1-3)Gal(b1-4)GlcNAc(b1-3)Gal(b1-4)GlcNAc(b1-3)Gal(b1-4)GlcNAc(b1-3)Gal(b1-4)GlcNAc(b1-2)Man(a1-3)[Gal(b1-4)GlcNAc(b1-3)Gal(b1-4)GlcNAc(b1-3)Gal(b1-4)GlcNAc(b1-3)Gal(b1-4)GlcNAc(b1-3)Gal(b1-4)GlcNAc(b1-2)Man(a1-6)]Man(b1-4)GlcNAc(b1-4)[Fuc(a1-6)]GlcNAc
Method in brief: as §1

[5] = target: Gal(b1-4)GlcNAc(b1-3)Gal(b1-4)GlcNAc(b1-3)Gal(b1-4)GlcNAc(b1-3)Gal(b1-4)GlcNAc(b1-3)Gal(b1-4)GlcNAc(b1-2)[Gal(b1-4)GlcNAc(b1-3)Gal(b1-4)GlcNAc(b1-3)Gal(b1-4)GlcNAc(b1-3)Gal(b1-4)GlcNAc(b1-3)Gal(b1-4)GlcNAc(b1-6)]Man(a1-6)[Gal(b1-4)GlcNAc(b1-3)Gal(b1-4)GlcNAc(b1-3)Gal(b1-4)GlcNAc(b1-3)Gal(b1-4)GlcNAc(b1-3)Gal(b1-4)GlcNAc(b1-2)Man(a1-3)]Man(b1-4)GlcNAc(b1-4)[Fuc(a1-6)]GlcNAc
Method in brief: as §1

[6] = target: Gal(b1-4)GlcNAc(b1-3)Gal(b1-4)GlcNAc(b1-3)Gal(b1-4)GlcNAc(b1-3)Gal(b1-4)GlcNAc(b1-3)Gal(b1-4)GlcNAc(b1-3)Gal(b1-4)GlcNAc(b1-2)Man(a1-3)[Gal(b1-4)GlcNAc(b1-3)Gal(b1-4)GlcNAc(b1-3)Gal(b1-4)GlcNAc(b1-3)Gal(b1-4)GlcNAc(b1-3)Gal(b1-4)GlcNAc(b1-3)Gal(b1-4)GlcNAc(b1-2)Man(a1-6)]Man(b1-4)GlcNAc(b1-4)GlcNAc
Method in brief: as §1

[7] = target: Gal(b1-4)GlcNAc(b1-3)Gal(b1-4)GlcNAc(b1-3)GalNAc
Method in brief: as §1

[8] = target: Gal(b1-4)GlcNAc(b1-3)Gal(b1-4)GlcNAc(b1-3)[Gal(b1-4)GlcNAc(b1-3)Gal(b1-4)GlcNAc(b1-6)]GalNAc
Method in brief: as §1

[9] = target: Gal(b1-4)GlcNAc(b1-3)Gal(b1-4)GlcNAc(b1-6)[Gal(b1-3)]GalNAc
Method in brief: as §1

[10] = target: Gal(b1-4)GlcNAc(b1-3)Gal(b1-4)[Fuc(a1-3)]GlcNAc(b1-3)Gal(b1-4)[Fuc(a1-3)]GlcNAc
Method in brief: as §1

[11] = target: Gal(b1-4)GlcNAc(b1-3)GalNAc
Method in brief: as §1

[12] = target: Gal(b1-4)GlcNAc(b1-3)[Fuc(a1-3)GlcNAc(b1-6)]Gal(b1-4)Glc
Method in brief: as §1

[13] = target: Gal(b1-4)GlcNAc(b1-3)[Gal(b1-4)GlcNAc(b1-6)]Gal(b1-4)GlcNAc
Method in brief: as §1

[14] = target: Gal(b1-4)GlcNAc(b1-3)[GlcNAc(b1-6)]Gal(b1-4)GlcNAc
Method in brief: as §1

[15] = target: Gal(b1-4)GlcNAc(b1-6)Gal(b1-4)GlcNAc
Method in brief: as §1

[16] = target: Gal(b1-4)GlcNAc(b1-6)GalNAc
Method in brief: as §1

[17] = target: Gal(b1-4)GlcNAc(b1-6)[Gal(b1-3)]GalNAc
Method in brief: as §1

[18] = target: Gal(b1-4)GlcNAc(b1-6)[Gal(b1-4)GlcNAc(b1-3)]GalNAc
Method in brief: as §1

Gal(b1-4)GlcNAc6P = target: Gal(b1-4)GlcNAc6P
Method in brief: as §1

Gal(b1-6)Gal = target: Gal(b1-6)Gal
Method in brief: as §1

Gal3S(b1-3)GalNAc = target: Gal3S(b1-3)GalNAc
Method in brief: as §1

Gal3S(b1-3)GlcNAc = target: Gal3S(b1-3)GlcNAc
Method in brief: as §1

[19] = target: Gal3S(b1-3)[Fuc(a1-4)]GlcNAc
Method in brief: as §1

Gal3S(b1-4)Glc = target: Gal3S(b1-4)Glc
Method in brief: as §1

Gal3S(b1-4)Glc6S = target: Gal3S(b1-4)Glc6S
Method in brief: as §1

Gal3S(b1-4)GlcNAc = target: Gal3S(b1-4)GlcNAc
Method in brief: as §1

[20] = target: Gal3S(b1-4)[Fuc(a1-3)]Glc6S
Method in brief: as §1

[21] = target: Gal3S(b1-4)[Fuc(a1-3)]GlcNAc
Method in brief: as §1

[22] = target: Gal3S(b1-4)[Fuc(a1-3)]GlcNAc6S
Method in brief: as §1

Gal3S4S(b1-4)GlcNAc = target: Gal3S4S(b1-4)GlcNAc
Method in brief: as §1

Gal3S6S(b1-4)GlcNAc = target: Gal3S6S(b1-4)GlcNAc
Method in brief: as §1

Gal3S6S(b1-4)GlcNAc6S = target: Gal3S6S(b1-4)GlcNAc6S
Method in brief: as §1

Gal4S(b1-4)GlcNAc = target: Gal4S(b1-4)GlcNAc
Method in brief: as §1

Gal4S6S(b1-4)GlcNAc = target: Gal4S6S(b1-4)GlcNAc
Method in brief: as §1

Gal6P(b1-4)GlcNAc = target: Gal6P(b1-4)GlcNAc
Method in brief: as §1

Gal6S(b1-3)GlcNAc = target: Gal6S(b1-3)GlcNAc
Method in brief: as §1

Gal6S(b1-3)GlcNAc6S = target: Gal6S(b1-3)GlcNAc6S
Method in brief: as §1

Gal6S(b1-4)Glc = target: Gal6S(b1-4)Glc
Method in brief: as §1

B1: GS13814A-bth-462-26-462 (Bacteroides thetaiotaomicron) (protein)
chain: DDRDNLMVNDQIGLLHSTYTETEIFRGMDTPYQLFVIKSGKGKQETEVSISVDETVLQSYNTDNGTSIQLLPSDCYTILQPALRLNDSDYRKAFDIKWNADRLSDLLSTGKEYGLPIQMSVVQNFISADDERLKTIIVPTIKEPYLQMDVPGMSPVTDFMPTFGDLNERELFVKIRTNYSNDEDISFQIEVDPQLVIDYNTAHGTAYKMLPESSFTVDNKGVILTGMKETFIKIKYHKKGLIPEEGTYLFGDYVLPLRITSVSKYGISPDAASKLYTVKFQPDPIDKKGWSVIDFNNCCTQDGGWYLNMGWGVESLIDNNPGTQWLCRWDVKEPLPYYFVFDMGKEYTLFRFGFANPVAPAAHVWAGTSKAGYVEASIDNENWVKLKDWTSPKIGEPNVNMDVPATQARYIRFVITDTYPTYDGLRVSLGEVYAWGM
glycan array binding signal (z-score) [1]: 0.552
glycan array binding signal (z-score) [2]: 0.591
glycan array binding signal (z-score) [3]: -0.185
glycan array binding signal (z-score) [4]: -0.723
glycan array binding signal (z-score) [5]: 1.26
glycan array binding signal (z-score) [6]: 0.46
glycan array binding signal (z-score) [7]: -1
glycan array binding signal (z-score) [8]: -0.172
glycan array binding signal (z-score) [9]: -0.68
glycan array binding signal (z-score) [10]: 0.104
glycan array binding signal (z-score) [11]: -0.288
glycan array binding signal (z-score) [12]: -0.576
glycan array binding signal (z-score) [13]: -0.298
glycan array binding signal (z-score) [14]: -0.604
glycan array binding signal (z-score) [15]: 1.76
glycan array binding signal (z-score) [16]: -0.131
glycan array binding signal (z-score) [17]: -0.098
glycan array binding signal (z-score) [18]: 0.309
glycan array binding signal (z-score) (Gal(b1-4)GlcNAc6P): 0.706
glycan array binding signal (z-score) (Gal(b1-6)Gal): 0.332
glycan array binding signal (z-score) (Gal3S(b1-3)GalNAc): 0.24
glycan array binding signal (z-score) (Gal3S(b1-3)GlcNAc): -0.591
glycan array binding signal (z-score) [19]: -0.022
glycan array binding signal (z-score) (Gal3S(b1-4)Glc): -0.952
glycan array binding signal (z-score) (Gal3S(b1-4)Glc6S): -0.017
glycan array binding signal (z-score) (Gal3S(b1-4)GlcNAc): -0.34
glycan array binding signal (z-score) [20]: 0.367
glycan array binding signal (z-score) [21]: 0.598
glycan array binding signal (z-score) [22]: -0.372
glycan array binding signal (z-score) (Gal3S4S(b1-4)GlcNAc): 0.205
glycan array binding signal (z-score) (Gal3S6S(b1-4)GlcNAc): 1.62
glycan array binding signal (z-score) (Gal3S6S(b1-4)GlcNAc6S): 2.45
glycan array binding signal (z-score) (Gal4S(b1-4)GlcNAc): 1.27
glycan array binding signal (z-score) (Gal4S6S(b1-4)GlcNAc): 1.02
glycan array binding signal (z-score) (Gal6P(b1-4)GlcNAc): -0.335
glycan array binding signal (z-score) (Gal6S(b1-3)GlcNAc): -0.522
glycan array binding signal (z-score) (Gal6S(b1-3)GlcNAc6S): -0.024
glycan array binding signal (z-score) (Gal6S(b1-4)Glc): 0.141
